We go through 22 sequences from the supplement of paper PMC10338343.

± gives the standard deviation. The entries are a selection whose mix differs from that of the whole data set. Many entries were measured with a wide error.

Common to all, as to assay: pre-steady-state target cleavage rate (min^-1); MIWI and MILI are mouse PIWI proteins and EfPiwi is from a freshwater sponge; tags in brackets are library labels; higher = faster piRNA-guided slicing of the target
In experiment [1] the test system is MILI (PIWIL2) piRISC loaded with L1MC piRNA (26 nt). As to conditions: guide: L1MC piRNA 5'p-UAACUAAAUACUAUGCAAGCUGUAGG
Put shortly:
(§1)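 Cleave-'n-Seq used a transcribed, DNA-blocked target RNA library at 0.1 nM and active affinity-purified piRISC with one synthetic guide at 1 nM, with or without 500 nM GTSF1 partner protein, in HEPES–potassium acetate buffer at 33 °C for 0–8 or 0–960 min. Uncleaved targets were sequenced and normalised to depth and to weakly complementary targets, and three trials were pooled with k3 capped at 0.0001 min^-1. The pre-steady-state cleavage rate was estimated by a burst-and-steady-state fit.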

The subject of experiment [2] is MIWI (PIWIL1) piRISC loaded with L1MC piRNA (30 nt). The note with it: guide: L1MC piRNA 5'p-UAACUAAAUACUAUGCAAGCUGUAGGUCCU
The procedure, abridged: as §1

Experiment [3] has as its system MILI (PIWIL2) piRISC loaded with piRNA #1 (26 nt). The note with it: guide: piRNA #1 5'p-UGAGGUAGUAGGUUGUAUAGUAUCCA; auxiliary factor: 500 nM mouse GTSF1. The procedure, abridged:
as §1

Setting [4] is: auxiliary factor: none (no GTSF1).
The mark [5] stands for this setting: auxiliary factor: 500 nM mouse GTSF1.

Regarding UCCUGGAUGUCGAUGCUUAGUAUAUAGUUA, the “pre-steady-state target cleavage rate” value in experiment [1] (setting [4]) amounted to 0.00179 ± 0.0041; in experiment [2] (setting [4]) it was 0.000627 ± 0.011.

Regarding UCCUGGAUGAGCUUCCAUAGUAUUUACAAA, the results for the “pre-steady-state target cleavage rate” value in experiment [1] (setting [4]) and in experiment [2] (setting [4]) were 0.000314 ± 0.02 and 0.000864 ± 0.0093, respectively.

Turning to UCCUGGAUGUCGAACGUUAGUCAUUUAGUUA, the “pre-steady-state target cleavage rate” value was 0.000204 ± 0.021 in experiment [1] (setting [4]) and 0.000419 ± 0.014 in experiment [2] (setting [4]).

With “UCCUCCUACAGCUUGCUAUCAUAAAUCAAA [g15:g26:cont:t1A]”, the “pre-steady-state target cleavage rate” value in experiment [1] (setting [4]) stood at 0.000107 ± 0.031; in experiment [2] (setting [4]) it was 0.000577 ± 0.013.

Consider “UCCUGGAUGUCGAUGCAUAGUAUUUUCAAA [g6:g17:cont:t1A]”, for which the “pre-steady-state target cleavage rate” value was 0.000486 ± 0.0068 in experiment [1] (setting [4]) and 0.000381 ± 0.014 in experiment [2] (setting [4]).

With UCCUGGAUGUCCUUCGUUAGUAUUUAGUAA, the entries for the “pre-steady-state target cleavage rate” value in experiment [1] (setting [4]) and in experiment [2] (setting [5]) were 0.000415 ± 0.01 and 0.000956 ± 0.013, respectively.

For UCCUGGAUGUGCUAGCAUAGUAUAUAGUUA, the figures for the “pre-steady-state target cleavage rate” value in experiment [1] (setting [4]), in experiment [2] (setting [5]) and in experiment [2] (setting [4]) were 0.00166 ± 0.0057, 0.0106 ± 0.0042 and 0.00211 ± 0.0048, respectively.

UCCUGGAUGUCGAACGUUAUAUUUAGUUA: the entries for the “pre-steady-state target cleavage rate” value in experiment [1] (setting [4]) and in experiment [2] (setting [4]) were 0.000168 ± 0.025 and 0.000325 ± 0.021, respectively.

Take UCCUGGAUGUGCUUGGAUUGUAUUUAGUUA: the “pre-steady-state target cleavage rate” value was 0.00095 ± 0.0079 in experiment [1] (setting [4]), 0.000337 ± 0.032 in experiment [2] (setting [5]) and 0.000173 ± 0.036 in experiment [2] (setting [4]).

Take UCCUGGAUGUCCUUGCUUAGAAUUUAGUUA: the figures for the “pre-steady-state target cleavage rate” value in experiment [1] (setting [4]), in experiment [2] (setting [5]) and in experiment [2] (setting [4]) were 0.00198 ± 0.0038, 0.00139 ± 0.0083 and 0.000892 ± 0.0054, respectively.

In the case of UCCUGGAUGUCGAACCAUUGUAUAUAGUUA, the entries for the “pre-steady-state target cleavage rate” value in experiment [1] (setting [4]) and in experiment [2] (setting [5]) were 0.000404 ± 0.015 and less than 0.0001, respectively.

Regarding UCCUGGAUGUCGAACCAUAGUUUAUAGUUA, the results for the “pre-steady-state target cleavage rate” value in experiment [1] (setting [5]), in experiment [2] (setting [5]) and in experiment [2] (setting [4]) were 0.000324 ± 0.019, 0.000432 ± 0.013 and 0.000263 ± 0.024, respectively.

Turning to “UCCUGCUACAGCUUGCAUUCAUAAAUCAAA [g13:g25:cont:t1A]”, the “pre-steady-state target cleavage rate” value is 0.000134 ± 0.03 in experiment [1] (setting [4]) and 0.000559 ± 0.017 in experiment [2] (setting [4]).

On to UCCUGCUACAGCAACCAUAGUAUUUACAAA, for which the “pre-steady-state target cleavage rate” value in experiment [1] (setting [4]) worked out at 0.000214 ± 0.018; in experiment [2] (setting [4]), 0.00065 ± 0.017.

For UCCUCCCUACAGCUUGCAUAGUAUUUAGUUA, the “pre-steady-state target cleavage rate” value in experiment [1] (setting [5]) was 0.303 ± 0.02; in experiment [2] (setting [5]) it was 1.09 ± 0.038; in experiment [2] (setting [4]) it was 0.075 ± 0.016.

UCCUCCUACAGCUUGCAUAUGUAUUUAGUUA: the entries for the “pre-steady-state target cleavage rate” value in experiment [1] (setting [4]) and in experiment [2] (setting [4]) were 0.00141 ± 0.0046 and 0.000773 ± 0.01, respectively.

On to UCCUGGAUGUCGAACGUAAGCUAUUUAGUUA, for which the results for the “pre-steady-state target cleavage rate” value in experiment [1] (setting [4]) and in experiment [2] (setting [4]) were 0.000302 ± 0.014 and 0.000291 ± 0.012, respectively.

For UCCUGCUACAGCUACGAUAGUAUUUUCAAA, the results for the “pre-steady-state target cleavage rate” value in experiment [1] (setting [4]) and in experiment [2] (setting [4]) were 0.000438 ± 0.0089 and 0.000431 ± 0.015, respectively.

For UCCUGGAUGUCCUAGCAUAGUAUUUACUUA, the “pre-steady-state target cleavage rate” value is 0.00168 ± 0.0031 in experiment [1] (setting [4]) and 0.00113 ± 0.0053 in experiment [2] (setting [4]).

Turning to UCCUGGAUCAGCUUGCAUAGUAUUUUGAUA, the “pre-steady-state target cleavage rate” value in experiment [1] (setting [4]) came out at 0.00131 ± 0.005; in experiment [2] (setting [5]), 0.17 ± 0.032; in experiment [2] (setting [4]), 0.0123 ± 0.004.

For GGAGACCUAUGAAUAGAACCUACAACCUCA, the “pre-steady-state target cleavage rate” value in experiment [3] stood at 0.000372 ± 0.0088.

Regarding UCCUGGAUGUCGAACCAUAGUAUUUAAUUA, the results for the “pre-steady-state target cleavage rate” value in experiment [1] (setting [5]), in experiment [2] (setting [5]) and in experiment [2] (setting [4]) were 0.000456 ± 0.017, 0.000486 ± 0.013 and 0.000238 ± 0.016, respectively.
